Measurements as given in patent US9926581B2, “Fagopyritol synthase genes and uses thereof” (Cornell Research Foundation, Inc., priority 2002, dated 2018).

Columns and labels:
soybean explants [1] = assay: Soybean explant feeding with 50 mM free cyclitols for one week, soluble carbohydrates in mature seeds; format: in vivo, Glycine max (L.) Merrill cv. Chippewa 64; settings: axis and cotyledon tissue of mature seeds
soybean explants [2] = assay: Soybean explant feeding 3 days with 50 mM cyclitol in 1% sucrose, slow drying time course, soluble carbohydrates in axis, cotyledon, seed coat and leaf
buckwheat embryos = assay: Soluble carbohydrates in buckwheat embryos from seeds matured at 15, 22 or 30° C.; format: in vivo, Fagopyrum esculentum Moench
immature soybean embryos = assay: Embryo feeding experiments: cyclitols fed to immature soybean embryos, precocious maturation by slow drying, soluble carbohydrates in axis and cotyledons; format: in vivo, Glycine max (L.) Merrill
[3] = 3 days transport of sucrose (1%) and D-chiro-inositol (50 mM), after 2 days slow drying, Rep 1
[4] = 3 days transport of sucrose (1%) and D-chiro-inositol (50 mM), after 2 days slow drying, Rep 2
[5] = 3 days transport of sucrose (1%) and D-chiro-inositol (50 mM), after 4 days slow drying, Rep 1
[6] = 3 days transport of sucrose (1%) and D-chiro-inositol (50 mM), after 4 days slow drying, Rep 2
[7] = 3 days transport of sucrose (1%) and D-chiro-inositol (50 mM), after 14 days slow drying, Rep 1
[8] = 3 days transport of sucrose (1%) and D-chiro-inositol (50 mM), after 14 days slow drying, Rep 2
[9] = 3 days transport of sucrose (1%) and D-chiro-inositol (50 mM), before slow drying, Rep 1
[10] = 3 days transport of sucrose (1%) and D-chiro-inositol (50 mM), before slow drying, Rep 2
[11] = 3 days transport of sucrose (1%) and D-pinitol (50 mM), after 2 days slow drying, Rep 1
[12] = 3 days transport of sucrose (1%) and D-pinitol (50 mM), after 2 days slow drying, Rep 2
[13] = 3 days transport of sucrose (1%) and D-pinitol (50 mM), after 4 days slow drying, Rep 1
[14] = 3 days transport of sucrose (1%) and D-pinitol (50 mM), after 4 days slow drying, Rep 2
[15] = 3 days transport of sucrose (1%) and D-pinitol (50 mM), after 14 days slow drying, Rep 1
[16] = 3 days transport of sucrose (1%) and D-pinitol (50 mM), after 14 days slow drying, Rep 2
[17] = 3 days transport of sucrose (1%) and D-pinitol (50 mM), before slow drying, Rep 1
[18] = 3 days transport of sucrose (1%) and D-pinitol (50 mM), before slow drying, Rep 2
[19] = 3 days transport of sucrose (1%) and myo-inositol (50 mM), after 2 days slow drying, Rep 1
[20] = 3 days transport of sucrose (1%) and myo-inositol (50 mM), after 2 days slow drying, Rep 2
[21] = 3 days transport of sucrose (1%) and myo-inositol (50 mM), after 4 days slow drying, Rep 1
[22] = 3 days transport of sucrose (1%) and myo-inositol (50 mM), after 4 days slow drying, Rep 2
[23] = 3 days transport of sucrose (1%) and myo-inositol (50 mM), after 14 days slow drying, Rep 1
[24] = 3 days transport of sucrose (1%) and myo-inositol (50 mM), after 14 days slow drying, Rep 2
[25] = 3 days transport of sucrose (1%) and myo-inositol (50 mM), before slow drying, Rep 1
[26] = 3 days transport of sucrose (1%) and myo-inositol (50 mM), before slow drying, Rep 2
[27] = 3 days transport of sucrose (1%) without cyclitols, after 2 days slow drying, Rep 1
[28] = 3 days transport of sucrose (1%) without cyclitols, after 2 days slow drying, Rep 2
[29] = 3 days transport of sucrose (1%) without cyclitols, after 4 days slow drying, Rep 1
[30] = 3 days transport of sucrose (1%) without cyclitols, after 4 days slow drying, Rep 2
[31] = 3 days transport of sucrose (1%) without cyclitols, after 14 days slow drying, Rep 1
[32] = 3 days transport of sucrose (1%) without cyclitols, after 14 days slow drying, Rep 2
[33] = 3 days transport of sucrose (1%) without cyclitols, before slow drying, Rep 1
[34] = 3 days transport of sucrose (1%) without cyclitols, before slow drying, Rep 2

OC[C@H]1O[C@H](OC[C@H]2O[C@H](OC[C@H]3O[C@H](O[C@]4(CO)O[C@H](CO)[C@@H](O)[C@@H]4O)[C@H](O)[C@@H](O)[C@@H]3O)[C@H](O)[C@@H](O)[C@H]2O)[C@H](O)[C@@H](O)[C@H]1O [Stachyose, stachyose]
change in concentration after feeding 50 mM myo-inositol to explants (soybean explants [1]): No significant changes
Accumulation of soluble carbohydrates in soybean axis (soybean explants [2]; [3]): 11.56 μg/axis
Accumulation of soluble carbohydrates in soybean cotyledon (soybean explants [2]; [3]): 44.86 μg/cotyledon
Accumulation of soluble carbohydrates in soybean seed coat (soybean explants [2]; [3]): 0 μg/seed coat
Accumulation of soluble carbohydrates in soybean axis (soybean explants [2]; [4]): 8.94 μg/axis
Accumulation of soluble carbohydrates in soybean cotyledon (soybean explants [2]; [4]): 0 μg/cotyledon
Accumulation of soluble carbohydrates in soybean seed coat (soybean explants [2]; [4]): 0 μg/seed coat
Accumulation of soluble carbohydrates in soybean axis (soybean explants [2]; [5]): 49.55 μg/axis
Accumulation of soluble carbohydrates in soybean cotyledon (soybean explants [2]; [5]): 308.62 μg/cotyledon
Accumulation of soluble carbohydrates in soybean seed coat (soybean explants [2]; [5]): 0 μg/seed coat
Accumulation of soluble carbohydrates in soybean axis (soybean explants [2]; [6]): 22.07 μg/axis
Accumulation of soluble carbohydrates in soybean cotyledon (soybean explants [2]; [6]): 277.15 μg/cotyledon
Accumulation of soluble carbohydrates in soybean seed coat (soybean explants [2]; [6]): 0 μg/seed coat
Accumulation of soluble carbohydrates in soybean axis (soybean explants [2]; [7]): 47.82 μg/axis
Accumulation of soluble carbohydrates in soybean cotyledon (soybean explants [2]; [7]): 357.02 μg/cotyledon
Accumulation of soluble carbohydrates in soybean seed coat (soybean explants [2]; [7]): 0 μg/seed coat
Accumulation of soluble carbohydrates in soybean axis (soybean explants [2]; [8]): 39.47 μg/axis
Accumulation of soluble carbohydrates in soybean cotyledon (soybean explants [2]; [8]): 349.60 μg/cotyledon
Accumulation of soluble carbohydrates in soybean seed coat (soybean explants [2]; [8]): 15.45 μg/seed coat
Accumulation of soluble carbohydrates in soybean axis (soybean explants [2]; [9]): 0 μg/axis
Accumulation of soluble carbohydrates in soybean cotyledon (soybean explants [2]; [9]): 0 μg/cotyledon
Accumulation of soluble carbohydrates in soybean axis (soybean explants [2]; [10]): 0 μg/axis
Accumulation of soluble carbohydrates in soybean cotyledon (soybean explants [2]; [10]): 0 μg/cotyledon
Accumulation of soluble carbohydrates in soybean axis (soybean explants [2]; [11]): 11.91 μg/axis
Accumulation of soluble carbohydrates in soybean cotyledon (soybean explants [2]; [11]): 0 μg/cotyledon
Accumulation of soluble carbohydrates in soybean seed coat (soybean explants [2]; [11]): 0 μg/seed coat
Accumulation of soluble carbohydrates in soybean axis (soybean explants [2]; [12]): 7.69 μg/axis
Accumulation of soluble carbohydrates in soybean cotyledon (soybean explants [2]; [12]): 0 μg/cotyledon
Accumulation of soluble carbohydrates in soybean seed coat (soybean explants [2]; [12]): 0 μg/seed coat
Accumulation of soluble carbohydrates in soybean axis (soybean explants [2]; [13]): 79.54 μg/axis
Accumulation of soluble carbohydrates in soybean cotyledon (soybean explants [2]; [13]): 211.21 μg/cotyledon
Accumulation of soluble carbohydrates in soybean seed coat (soybean explants [2]; [13]): 0 μg/seed coat
Accumulation of soluble carbohydrates in soybean axis (soybean explants [2]; [14]): 28.64 μg/axis
Accumulation of soluble carbohydrates in soybean cotyledon (soybean explants [2]; [14]): 552.89 μg/cotyledon
Accumulation of soluble carbohydrates in soybean seed coat (soybean explants [2]; [14]): 0 μg/seed coat
Accumulation of soluble carbohydrates in soybean axis (soybean explants [2]; [15]): 54.54 μg/axis
Accumulation of soluble carbohydrates in soybean cotyledon (soybean explants [2]; [15]): 268.51 μg/cotyledon
Accumulation of soluble carbohydrates in soybean seed coat (soybean explants [2]; [15]): 0 μg/seed coat
Accumulation of soluble carbohydrates in soybean axis (soybean explants [2]; [16]): 78.56 μg/axis
Accumulation of soluble carbohydrates in soybean cotyledon (soybean explants [2]; [16]): 427.70 μg/cotyledon
Accumulation of soluble carbohydrates in soybean seed coat (soybean explants [2]; [16]): 64.19 μg/seed coat
Accumulation of soluble carbohydrates in soybean axis (soybean explants [2]; [17]): 0 μg/axis
Accumulation of soluble carbohydrates in soybean cotyledon (soybean explants [2]; [17]): 0 μg/cotyledon
Accumulation of soluble carbohydrates in soybean axis (soybean explants [2]; [18]): 0 μg/axis
Accumulation of soluble carbohydrates in soybean cotyledon (soybean explants [2]; [18]): 0 μg/cotyledon
Accumulation of soluble carbohydrates in soybean axis (soybean explants [2]; [19]): 9.92 μg/axis
Accumulation of soluble carbohydrates in soybean cotyledons (soybean explants [2]; [19]): 0 μg/cotyledon
Accumulation of soluble carbohydrates in soybean seed coats (soybean explants [2]; [19]): 0 μg/seed coat
Accumulation of soluble carbohydrates in soybean axis (soybean explants [2]; [20]): 6.33 μg/axis
Accumulation of soluble carbohydrates in soybean cotyledons (soybean explants [2]; [20]): 50.41 μg/cotyledon
Accumulation of soluble carbohydrates in soybean seed coats (soybean explants [2]; [20]): 0 μg/seed coat
Accumulation of soluble carbohydrates in soybean axis (soybean explants [2]; [21]): 62.18 μg/axis
Accumulation of soluble carbohydrates in soybean cotyledons (soybean explants [2]; [21]): 224.95 μg/cotyledon
Accumulation of soluble carbohydrates in soybean axis (soybean explants [2]; [22]): 55.60 μg/axis
Accumulation of soluble carbohydrates in soybean cotyledons (soybean explants [2]; [22]): 774.04 μg/cotyledon
Accumulation of soluble carbohydrates in soybean seed coats (soybean explants [2]; [22]): 0 μg/seed coat
Accumulation of soluble carbohydrates in soybean axis (soybean explants [2]; [23]): 89.46 μg/axis
Accumulation of soluble carbohydrates in soybean cotyledons (soybean explants [2]; [23]): 399.25 μg/cotyledon
Accumulation of soluble carbohydrates in soybean seed coats (soybean explants [2]; [23]): 20.21 μg/seed coat
Accumulation of soluble carbohydrates in soybean axis (soybean explants [2]; [24]): 57.18 μg/axis
Accumulation of soluble carbohydrates in soybean cotyledons (soybean explants [2]; [24]): 323.00 μg/cotyledon
Accumulation of soluble carbohydrates in soybean seed coats (soybean explants [2]; [24]): 35.12 μg/seed coat
Accumulation of soluble carbohydrates in soybean axis (soybean explants [2]; [25]): 0 μg/axis
Accumulation of soluble carbohydrates in soybean cotyledons (soybean explants [2]; [25]): 0 μg/cotyledon
Accumulation of soluble carbohydrates in soybean axis (soybean explants [2]; [26]): 0 μg/axis
Accumulation of soluble carbohydrates in soybean cotyledons (soybean explants [2]; [26]): 0 μg/cotyledon
Accumulation of soluble carbohydrates in soybean axis (soybean explants [2]; [27]): 0 μg/axis
Accumulation of soluble carbohydrates in soybean cotyledon (soybean explants [2]; [27]): 12.20 μg/cotyledon
Accumulation of soluble carbohydrates in soybean seed coats (soybean explants [2]; [27]): 0 μg/seed coat
Accumulation of soluble carbohydrates in soybean axis (soybean explants [2]; [28]): 27.73 μg/axis
Accumulation of soluble carbohydrates in soybean cotyledon (soybean explants [2]; [28]): 18.15 μg/cotyledon
Accumulation of soluble carbohydrates in soybean seed coats (soybean explants [2]; [28]): 0 μg/seed coat
Accumulation of soluble carbohydrates in soybean axis (soybean explants [2]; [29]): 96.03 μg/axis
Accumulation of soluble carbohydrates in soybean cotyledon (soybean explants [2]; [29]): 773.51 μg/cotyledon
Accumulation of soluble carbohydrates in soybean seed coats (soybean explants [2]; [29]): 0 μg/seed coat
Accumulation of soluble carbohydrates in soybean axis (soybean explants [2]; [30]): 118.05 μg/axis
Accumulation of soluble carbohydrates in soybean cotyledon (soybean explants [2]; [30]): 516.66 μg/cotyledon
Accumulation of soluble carbohydrates in soybean seed coats (soybean explants [2]; [30]): 0 μg/seed coat
Accumulation of soluble carbohydrates in soybean axis (soybean explants [2]; [31]): 101.39 μg/axis
Accumulation of soluble carbohydrates in soybean cotyledon (soybean explants [2]; [31]): 1331.00 μg/cotyledon
Accumulation of soluble carbohydrates in soybean seed coats (soybean explants [2]; [31]): 0 μg/seed coat
Accumulation of soluble carbohydrates in soybean axis (soybean explants [2]; [32]): 69.71 μg/axis
Accumulation of soluble carbohydrates in soybean cotyledon (soybean explants [2]; [32]): 904.20 μg/cotyledon
Accumulation of soluble carbohydrates in soybean seed coats (soybean explants [2]; [32]): 16.46 μg/seed coat
Accumulation of soluble carbohydrates in soybean axis (soybean explants [2]; [33]): 0 μg/axis
Accumulation of soluble carbohydrates in soybean cotyledon (soybean explants [2]; [33]): 0 μg/cotyledon
Accumulation of soluble carbohydrates in soybean axis (soybean explants [2]; [34]): 7.83 μg/axis
Accumulation of soluble carbohydrates in soybean cotyledon (soybean explants [2]; [34]): 0 μg/cotyledon
change after feeding myo-inositol (soybean explants [2]; seed coat of dry seeds (14 days slow drying)): doubled
Minor soluble carbohydrates in buckwheat embryos (buckwheat embryos; maturation temperature 15° C., 16 DAP): 0 μg/embryo
Minor soluble carbohydrates in buckwheat embryos (buckwheat embryos; maturation temperature 15° C., 20 DAP): 0 μg/embryo
Minor soluble carbohydrates in buckwheat embryos (buckwheat embryos; maturation temperature 15° C., 28 DAP): 0 μg/embryo
Minor soluble carbohydrates in buckwheat embryos (buckwheat embryos; maturation temperature 15° C., 28 DAP + 2 wk 12% RH): 0 μg/embryo
Minor soluble carbohydrates in buckwheat embryos (buckwheat embryos; maturation temperature 22° C., 20 DAP): 0 μg/embryo
Minor soluble carbohydrates in buckwheat embryos (buckwheat embryos; maturation temperature 22° C., 28 DAP): 3.04 ± 3.04 μg/embryo
Minor soluble carbohydrates in buckwheat embryos (buckwheat embryos; maturation temperature 30° C., 20 DAP): 2.71 ± 2.71 μg/embryo
Minor soluble carbohydrates in buckwheat embryos (buckwheat embryos; maturation temperature 30° C., 28 DAP): 5.07 ± 2.53 μg/embryo
change in concentration after feeding myo-inositol (immature soybean embryos; axis and cotyledon tissues, myo-inositol up to 50 mM, after precocious maturation): little change
increase in concentration after feeding D-chiro-inositol (immature soybean embryos; axis and cotyledons, concentration series, 14 days precocious maturation): did not increase
